In patent US20090258013A1:
Results are given in words; binding and its absence hold for the method and conditions named. Some binding calls cover weakened binding; strength is not graded here.

Sequences of proteins named here, by UniProt entry; tags and fusion partners are left off. Residues count along the entry.
UniProt P15151, residues 21-343: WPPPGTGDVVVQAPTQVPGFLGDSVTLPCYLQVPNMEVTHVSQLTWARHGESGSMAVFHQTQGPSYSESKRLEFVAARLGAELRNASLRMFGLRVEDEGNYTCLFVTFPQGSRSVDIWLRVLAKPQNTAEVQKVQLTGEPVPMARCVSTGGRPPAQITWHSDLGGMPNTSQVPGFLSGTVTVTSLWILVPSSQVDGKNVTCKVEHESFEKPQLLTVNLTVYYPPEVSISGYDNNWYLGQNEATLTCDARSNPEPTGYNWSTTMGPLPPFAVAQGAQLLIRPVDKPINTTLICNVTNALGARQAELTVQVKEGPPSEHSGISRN

Assays:
[1] = target: gD-tagged full-length TIGIT expressed on stably transfected CHO cells (human); experiment: flow cytometry, biotinylated PVR-Fc on CHO-TIGIT, without antibody D171
[2] = target: gD-tagged full-length TIGIT expressed on stably transfected CHO cells (human); experiment: flow cytometry, biotinylated Fc ligand + streptavidin-PE (y: Ligand Binding PE) vs receptor expression (x) on CHO transfectants

- binding [1]: binds
- binding [2]: binds
Substance: PVR-Fc fusion protein (from UniProt P15151 21-343)
